1 substance from article PMC6796842 can be followed below.

Chains of the proteins cited; added tags and fusions are not shown. Lines headed by an entry give the natural chain unless they say otherwise; changes in a name come on top. A line that says so, or that is headed by a name, gives the form on record, which may keep a tag or linker. Residues count along the entry.
GFP-fused WT human CTLA-4 in HEK293T cells (P16410, residues 36-223): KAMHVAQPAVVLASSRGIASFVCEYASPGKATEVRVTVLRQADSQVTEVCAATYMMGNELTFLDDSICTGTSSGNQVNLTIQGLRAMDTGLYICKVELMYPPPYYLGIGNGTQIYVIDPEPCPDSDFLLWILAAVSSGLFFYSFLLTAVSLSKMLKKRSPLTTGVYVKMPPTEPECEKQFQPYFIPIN
GFP-fused human CTLA-4 mutant Y201V in HEK293T cells (P16410, form named): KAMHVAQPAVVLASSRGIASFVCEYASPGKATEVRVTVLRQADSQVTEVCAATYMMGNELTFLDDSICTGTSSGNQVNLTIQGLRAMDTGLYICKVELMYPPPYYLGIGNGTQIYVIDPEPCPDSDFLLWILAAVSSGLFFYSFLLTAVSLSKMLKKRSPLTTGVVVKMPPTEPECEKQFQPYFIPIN
UniProt P50851: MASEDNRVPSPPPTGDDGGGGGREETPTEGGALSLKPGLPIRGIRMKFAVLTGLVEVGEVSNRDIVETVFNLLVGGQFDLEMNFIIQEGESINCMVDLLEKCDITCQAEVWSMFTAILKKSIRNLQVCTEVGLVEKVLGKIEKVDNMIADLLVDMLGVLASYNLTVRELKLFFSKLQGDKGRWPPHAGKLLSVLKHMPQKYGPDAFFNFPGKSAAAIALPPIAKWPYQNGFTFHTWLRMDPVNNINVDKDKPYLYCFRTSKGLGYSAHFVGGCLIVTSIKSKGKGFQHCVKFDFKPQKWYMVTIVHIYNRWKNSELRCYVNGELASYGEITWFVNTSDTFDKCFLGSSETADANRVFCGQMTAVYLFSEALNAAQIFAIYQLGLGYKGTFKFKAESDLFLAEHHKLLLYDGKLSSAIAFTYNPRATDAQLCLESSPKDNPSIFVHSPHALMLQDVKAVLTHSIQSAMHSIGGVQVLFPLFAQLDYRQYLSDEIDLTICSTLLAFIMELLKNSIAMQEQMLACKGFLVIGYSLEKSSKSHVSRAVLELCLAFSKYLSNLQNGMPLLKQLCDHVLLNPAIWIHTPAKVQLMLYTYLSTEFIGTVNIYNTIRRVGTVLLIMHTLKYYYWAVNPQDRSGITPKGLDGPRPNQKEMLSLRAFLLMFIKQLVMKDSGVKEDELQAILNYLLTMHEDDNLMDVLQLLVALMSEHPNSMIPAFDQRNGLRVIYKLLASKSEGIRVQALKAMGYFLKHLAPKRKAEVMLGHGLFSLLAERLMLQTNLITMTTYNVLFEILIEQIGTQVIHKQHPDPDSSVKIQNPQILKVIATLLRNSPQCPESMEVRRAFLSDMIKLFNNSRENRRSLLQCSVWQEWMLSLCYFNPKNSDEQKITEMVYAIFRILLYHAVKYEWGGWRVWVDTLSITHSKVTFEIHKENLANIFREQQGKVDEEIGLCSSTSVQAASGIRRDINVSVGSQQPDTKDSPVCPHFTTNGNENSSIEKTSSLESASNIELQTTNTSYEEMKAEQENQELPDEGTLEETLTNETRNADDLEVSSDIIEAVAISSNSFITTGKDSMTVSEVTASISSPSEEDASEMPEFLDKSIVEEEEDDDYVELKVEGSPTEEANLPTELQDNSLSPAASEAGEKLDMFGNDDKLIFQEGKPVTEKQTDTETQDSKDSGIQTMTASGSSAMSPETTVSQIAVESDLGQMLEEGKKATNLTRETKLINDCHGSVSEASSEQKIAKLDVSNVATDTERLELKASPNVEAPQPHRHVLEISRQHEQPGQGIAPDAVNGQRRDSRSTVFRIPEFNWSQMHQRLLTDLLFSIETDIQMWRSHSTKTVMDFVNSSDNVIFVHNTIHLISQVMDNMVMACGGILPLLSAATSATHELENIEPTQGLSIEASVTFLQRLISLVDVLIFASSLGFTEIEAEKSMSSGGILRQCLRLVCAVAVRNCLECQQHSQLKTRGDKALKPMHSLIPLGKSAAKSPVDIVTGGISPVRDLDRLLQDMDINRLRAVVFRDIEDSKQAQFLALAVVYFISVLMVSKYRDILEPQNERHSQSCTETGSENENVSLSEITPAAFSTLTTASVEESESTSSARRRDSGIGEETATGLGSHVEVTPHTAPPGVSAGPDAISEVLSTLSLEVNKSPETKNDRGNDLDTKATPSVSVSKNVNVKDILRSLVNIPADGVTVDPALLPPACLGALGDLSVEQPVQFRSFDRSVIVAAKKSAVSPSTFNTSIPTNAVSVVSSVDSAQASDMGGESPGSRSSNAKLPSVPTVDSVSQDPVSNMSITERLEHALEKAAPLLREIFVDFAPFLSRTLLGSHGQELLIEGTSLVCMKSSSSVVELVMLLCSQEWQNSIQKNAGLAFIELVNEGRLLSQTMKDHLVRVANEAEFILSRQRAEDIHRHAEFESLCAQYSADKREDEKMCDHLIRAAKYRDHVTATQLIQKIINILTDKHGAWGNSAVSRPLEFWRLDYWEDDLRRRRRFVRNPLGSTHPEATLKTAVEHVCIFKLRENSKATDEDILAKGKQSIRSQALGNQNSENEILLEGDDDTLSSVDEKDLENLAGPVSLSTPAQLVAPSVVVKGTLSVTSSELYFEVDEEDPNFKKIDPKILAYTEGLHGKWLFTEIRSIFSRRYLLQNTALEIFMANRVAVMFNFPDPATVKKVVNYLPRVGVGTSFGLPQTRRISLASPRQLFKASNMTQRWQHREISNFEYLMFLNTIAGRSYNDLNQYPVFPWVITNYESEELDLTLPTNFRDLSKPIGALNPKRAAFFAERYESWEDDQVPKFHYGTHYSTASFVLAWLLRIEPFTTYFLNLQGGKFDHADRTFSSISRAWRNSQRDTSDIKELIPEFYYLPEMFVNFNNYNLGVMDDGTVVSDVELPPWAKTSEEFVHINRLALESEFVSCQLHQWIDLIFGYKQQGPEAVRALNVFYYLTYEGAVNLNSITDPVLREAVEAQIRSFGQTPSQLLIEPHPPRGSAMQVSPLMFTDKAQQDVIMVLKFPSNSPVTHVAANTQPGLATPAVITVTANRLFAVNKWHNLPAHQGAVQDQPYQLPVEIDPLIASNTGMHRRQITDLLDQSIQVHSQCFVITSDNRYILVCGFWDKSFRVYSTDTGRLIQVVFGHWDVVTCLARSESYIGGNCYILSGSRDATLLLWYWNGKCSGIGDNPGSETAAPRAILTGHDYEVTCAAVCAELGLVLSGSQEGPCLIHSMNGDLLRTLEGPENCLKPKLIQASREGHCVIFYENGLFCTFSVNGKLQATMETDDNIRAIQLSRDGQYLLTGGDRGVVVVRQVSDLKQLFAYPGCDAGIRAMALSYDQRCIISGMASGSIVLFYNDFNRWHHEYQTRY

Results are given in words; binding and its absence hold for the method and conditions named. Binding seen in cells or lysates may run through a third protein. Some results given as binding are weak or reduced against the parent protein; the word gives no strength.

For experiment [1], the target named is GFP-fused WT human CTLA-4 in HEK293T cells (human) (UniProt P16410). Put plainly: co-IP; HEK293T cells transfected with GFP-fused WT or Y201V CTLA-4; lysis in M2 buffer; anti-GFP and protein G agarose overnight at 4 °C; immunoblot for LRBA and CTLA-4. (In western blotting, separated proteins are transferred to a membrane and probed.)
Experiment [2] concerns the target GFP-fused human CTLA-4 mutant Y201V in HEK293T cells (human) (UniProt P16410). The description is as above.

Regarding “lipopolysaccharide-responsive and beige-like anchor (LRBA) protein, endogenous in HEK293T cells (from UniProt P50851 1-2863)”, the values for the binding result in experiment [1] and in experiment [2] were “binds” and “no binding”, respectively.
